# Earlier results, collected in patent US9901611B2 (Molecular Defenses Corporation, priority 2015, dated 2018).
# At least one compound was matched to its structure with a doubt left.
# Experiments:
# NFκB = details: Jurkat cells, various concentrations; cited from earlier work
# HIV-1 LTR = details: Jurkat cells, synergistic induction by TNFα and Tat; cited from earlier work
structure (smiles),measurement,setting,value
"S=C(S)N1CCCC1 [PDTC, pyrrolidinedithiocarbamate]",TNFα-induced NFκB binding,NFκB,inhibited
same,HIV-1 LTR-mediated gene expression,HIV-1 LTR,but not
